From paper PMC5393179
These are yes or no findings as the source states them, for the method shown.

Protein sequences, listed by entry. Tags and fused reporters are not part of them.
UniProt P0A6X3: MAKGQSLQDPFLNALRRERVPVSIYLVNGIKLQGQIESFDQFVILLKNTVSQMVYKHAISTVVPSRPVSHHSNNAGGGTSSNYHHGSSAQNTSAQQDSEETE

Assays:
[1] = target: Escherichia coli ProQ, full length (E. coli) (UniProt P45577); experiment: AUC; ProQ alone; sedimentation coefficient 1.72 S, frictional coefficient 1.67; both purified
[2] = target: Escherichia coli ProQ, full length (E. coli) (UniProt P45577); experiment: SEC-MALS; ProQ alone in solution; measured molecular mass 25,490 g/mol; both purified
[3] = target: Escherichia coli Hfq (E. coli) (UniProt P0A6X3); experiment: native gel or EMSA; ProQ and Hfq mixed, run on a native polyacrylamide gel and stained for protein; ProQ alone does not enter the gel; both purified
[4] = target: Escherichia coli Hfq (E. coli) (UniProt P0A6X3); experiment: SEC; ProQ and Hfq mixed (text: equimolar amounts; legend: 1:6 molar ratio) and run on a size exclusion column; eluted fractions analysed by SDS-PAGE; both purified

Measured: binding

B1: Escherichia coli ProQ, full length (protein, UniProt P45577 1-232)
chain: MENQPKLNSSKEVIAFLAERFPHCFSAEGEARPLKIGIFQDLVDRVAGEMNLSKTQLRSALRLYTSSWRYLYGVKPGATRVDLDGNPCGELDEQHVEHARKQLEEAKARVQAQRAEQQAKKREAAATAGEKEDAPRRERKPRPTTPRRKEGAERKPRAQKPVEKAPKTVKAPREEQHTPVSDISALTVGQALKVKAGQNAMDATVLEITKDGVRVQLNSGMSLIVRAEHLVF
no binding: all assays above
